Here are results for six compounds from PubChem BioAssay AID292 (DTP/NCI, 2004).

The structures appear in SMILES notation. The list is a part of this screen's results and no random one: it gathers tests that were run many times, whatever their T/C, doses with no T/C, and many T/C values between a quarter and a half above the control. Further doses and runs are listed elsewhere. T/C is the treated group as % of the vehicle group. Some entries give survivors of the animals treated and no T/C: the source files T/C as zero there, which appears to mark a toxic dose or a test without result, not a measured value. Some doses without a T/C left all or most animals alive at the check, yet need not have been tolerated: survival well below the control is almost never listed, so the zero probably covers shortened survival too. Counts of survivors are from the toxicity check (mostly the fifth day) where no day follows; animals may have died later. Schedule codes are those of the source, taken here to give the interval after Q, in days (D) or hours (H), and the number of doses after X. Some doses were run more than once; the results are listed from low to high. Where survival is the endpoint, this PubChem deposit counts one and a half times the control or more as active, and values a quarter to a half above the control carry no call in these data; other NCI protocols may use other cut-offs. Some T/C values are followed by the survivors on the day toxicity was checked, most often the fifth; where none is given, no animal had died by that day. Brackets with × say how often a value occurs here.

In this test the test system is B6C3F1 mice, ip Sarcoma M5076, median survival T/C. Kind of test: NCI In Vivo Anticancer Drug Screen. Data for tumor model Sarcoma M5076 (intraperitoneal) in B6C3F1 mice. Particulars: T/C endpoint: median survival time, higher T/C = longer survival. In a few lines: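 Survival measured in treated (T) and vehicle control (C) mice with transplantable tumour; result given as T divided by C.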

[1] abbreviates: dose: 25.0 mg/kg/injection, schedule: Q04DX004 (ip), vehicle: Klucel (hydroxypropylcellulose) (HPC).
The mark [2] stands for this setting: dose: 50.0 mg/kg/injection, schedule: Q04DX004 (ip), vehicle: Klucel (hydroxypropylcellulose) (HPC).
Setting [3] is: dose: 200.0 mg/kg/injection, schedule: Q04DX004 (ip), vehicle: Klucel (hydroxypropylcellulose) (HPC).
Setting [4] is: dose: 400.0 mg/kg/injection, schedule: Q04DX004 (ip), vehicle: Klucel (hydroxypropylcellulose) (HPC).
[5] abbreviates: dose: 6.25 mg/kg/injection, schedule: Q04DX005 (ip), vehicle: saline.
The mark [6] stands for this setting: dose: 100.0 mg/kg/injection, schedule: Q04DX004 (ip), vehicle: saline.
Where [7] appears, read: dose: 100.0 mg/kg/injection, schedule: Q04DX005 (ip), vehicle: saline.
Where [8] appears, read: dose: 100.0 mg/kg/injection, schedule: Q04DX004 (ip), vehicle: Klucel (hydroxypropylcellulose) (HPC).

`CN(C)c1ccc2c(Nc3ccc(NS(C)(=O)=O)cc3)c3ccc(N(C)C)cc3nc2c1`: the T/C is, setting by setting: under setting [1], 145 % of control; (dose: 36.0 mg/kg/injection, schedule: Q04DX004 (ip), vehicle: Klucel (hydroxypropylcellulose) (HPC)) 129 % of control; under setting [2], 136 % of control; (dose: 60.0 mg/kg/injection, schedule: Q04DX004 (ip), vehicle: Klucel (hydroxypropylcellulose) (HPC)) 133 % of control; (dose: 100.0 mg/kg/injection, schedule: Q04DX004 (ip), vehicle: Klucel (hydroxypropylcellulose) (HPC), evaluated on day 60) 134 % of control; (dose: 100.0 mg/kg/injection, schedule: Q04DX004 (ip), vehicle: Klucel (hydroxypropylcellulose) (HPC), evaluated on day 75) 147 % of control. Besides, the T/C is, setting by setting: under setting [3], 147 % of control; under setting [4], 138 % of control [8 of 10 alive on day 14]. Further, the survivor count under setting [3] is on record as 5 of 10 on day 14; the survivor count (dose: 277.8 mg/kg/injection, schedule: Q04DX004 (ip), vehicle: Klucel (hydroxypropylcellulose) (HPC)) was 9 of 10 on day 14; the survivor count under setting [4] is on record as 0 of 10 on day 14; the survivor count (dose: 463.0 mg/kg/injection, schedule: Q04DX004 (ip), vehicle: Klucel (hydroxypropylcellulose) (HPC)) is 1 of 10 on day 14; the survivor count (dose: 800.0 mg/kg/injection, schedule: Q04DX004 (ip), vehicle: Klucel (hydroxypropylcellulose) (HPC)) is on record as 8 of 10 on day 14.
Turning to `CN(C)C(=O)c1cccc(COc2ccc(N3C(N)=NC(N)=NC3(C)C)cc2Cl)c1`, the T/C (dose: 6.25 mg/kg/injection, schedule: Q04DX004 (ip), vehicle: saline) is 97, 99, 100, 103 (2×), 105, 111 % of control; the T/C under setting [5] is 89, 92, 100, 100 % of control [9 of 10 alive on day 9]; the T/C (dose: 12.5 mg/kg/injection, schedule: Q04DX004 (ip), vehicle: saline) was 88, 91, 98, 102 (2×), 110, 114 % of control; the T/C (dose: 12.5 mg/kg/injection, schedule: Q04DX005 (ip), vehicle: saline, evaluated on day 75) is listed as 90, 100, 102, 111 % of control; the T/C (dose: 12.5 mg/kg/injection, schedule: Q04DX005 (ip), vehicle: saline, evaluated on day 100) was 100 % of control; the T/C (dose: 25.0 mg/kg/injection, schedule: Q04DX004 (ip), vehicle: saline) was 95, 95 [9 of 10 alive on day 9], 100 (2×), 108, 109, 115 % of control. Also, the T/C was 98 [9 of 10 alive on day 9], 102 [9 of 10 alive on day 9], 106 % of control (dose: 25.0 mg/kg/injection, schedule: Q04DX005 (ip), vehicle: saline, evaluated on day 75); 92 % of control (dose: 25.0 mg/kg/injection, schedule: Q04DX005 (ip), vehicle: saline, evaluated on day 100); 88, 96, 98 [7 of 10 alive on day 9], 102 (3×), 128 % of control (dose: 50.0 mg/kg/injection, schedule: Q04DX004 (ip), vehicle: saline); 96 [9 of 10 alive on day 9] and 109 % of control (dose: 50.0 mg/kg/injection, schedule: Q04DX005 (ip), vehicle: saline, evaluated on day 75); 91 % of control [6 of 8 alive on day 17] (dose: 50.0 mg/kg/injection, schedule: Q04DX005 (ip), vehicle: saline, evaluated on day 100); 94 and 105 % of control under setting [6]. In addition, the T/C under setting [7] is 91 % of control. For the same compound, the survivor count runs as follows: under setting [5], 8 of 8 on day 17; (dose: 25.0 mg/kg/injection, schedule: Q04DX005 (ip), vehicle: saline) 10 of 10 on day 9; (dose: 50.0 mg/kg/injection, schedule: Q04DX005 (ip), vehicle: saline) 5 of 10 on day 9 and 10 of 10 on day 9; under setting [6], 0 of 10 on day 14, 0 of 10 on day 9, 3 of 10 on day 14; under setting [7], 0 of 10 on day 9 and 0 of 8 on day 17.
Consider `CCNc1nc(NC(C)C)nc(-c2ccncc2)n1`, for which, under setting [4], the survivor count was 0 of 10 on day 14.
`O=S(Cl)C(Cl)=C(Cl)Cl` (configuration not stated): the survivor count was 10 of 10 on day 14 under setting [2], 8 of 10 on day 14 under setting [8], 4 of 10 on day 14 under setting [3] and 4 of 10 on day 14 under setting [4].
For the compound `Nc1c(/C=C/c2cc3cc(C4=NCCN4)ccc3o2)[nH]c2cc(C3=NCCN3)ccc12`, the T/C is, setting by setting: under setting [1], 128 % of control [9 of 10 alive on day 14]; under setting [2], 134 [7 of 10 alive on day 14] and 137 % of control [8 of 10 alive on day 14]. In addition, the survivor count under setting [8] was 3 of 10 on day 14 and 9 of 10 on day 14; the survivor count under setting [3] is on record as 0 of 10 on day 14; the survivor count under setting [4] is 0 of 10 on day 14.
`CC(=O)OCc1cc(=O)n(C)c2c3c4c(cc12)c(C)cc(=O)n4CO3`: the survivor count (dose: 160.0 mg/kg/injection, schedule: Q04DX004 (ip), vehicle: Klucel (hydroxypropylcellulose) (HPC)) is recorded as 5 of 10 on day 14.
